Laboratory results taken from PMC8287961.
No constants are given. Whether binding was seen depends on the method and setting. Binding seen in cells or lysates may run through a third protein. Here binding means that the protein was enriched with, or labelled near, the bait; the list need not be complete.

By UniProt entry, the sequences of proteins in these tests, tags left out.
UniProt P83917: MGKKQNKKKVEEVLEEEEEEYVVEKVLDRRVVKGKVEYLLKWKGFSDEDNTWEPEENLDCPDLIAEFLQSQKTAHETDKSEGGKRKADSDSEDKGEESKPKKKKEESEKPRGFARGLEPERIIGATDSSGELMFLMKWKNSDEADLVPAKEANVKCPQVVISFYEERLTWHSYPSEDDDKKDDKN
UniProt Q61686: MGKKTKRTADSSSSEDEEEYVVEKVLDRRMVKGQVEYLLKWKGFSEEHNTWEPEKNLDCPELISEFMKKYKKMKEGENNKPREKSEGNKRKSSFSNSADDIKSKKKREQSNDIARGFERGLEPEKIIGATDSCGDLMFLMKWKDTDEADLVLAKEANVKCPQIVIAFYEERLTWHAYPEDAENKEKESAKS
UniProt Q6Q783: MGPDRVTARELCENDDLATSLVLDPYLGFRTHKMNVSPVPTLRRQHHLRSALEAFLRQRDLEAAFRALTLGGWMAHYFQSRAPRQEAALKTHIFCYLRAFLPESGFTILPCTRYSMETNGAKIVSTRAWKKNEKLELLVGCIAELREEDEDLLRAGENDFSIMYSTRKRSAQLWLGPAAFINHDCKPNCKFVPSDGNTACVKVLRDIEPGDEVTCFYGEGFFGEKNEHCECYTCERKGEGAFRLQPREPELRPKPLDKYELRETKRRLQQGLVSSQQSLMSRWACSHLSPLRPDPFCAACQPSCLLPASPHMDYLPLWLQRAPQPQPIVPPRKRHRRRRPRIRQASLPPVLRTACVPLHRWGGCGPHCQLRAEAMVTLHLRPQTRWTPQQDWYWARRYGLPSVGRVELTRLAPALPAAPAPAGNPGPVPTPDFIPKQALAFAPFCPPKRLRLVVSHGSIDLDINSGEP

Molecular target: Heterochromatin binding protein HP1β (endogenous, mESCs and EpiLCs) (mouse (endogenous in E14 mESCs)) (UniProt P83917)
Test: affinity purification with mass spectrometry; ChIP-MS: formaldehyde-crosslinked, MNase-digested chromatin of wt against HP1β−/− E14 mESCs (naive, 0 h) and EpiLCs (48 h ActivinA/FGF); anti-HP1β antibody (Abcam), protein A/G beads; washes with 140 mM and 500 mM NaCl, 1% Triton X-100

| Substance | binding |
| --- | --- |
| HP1α (endogenous, mESCs) (from UniProt Q61686 1-191) | binds |
| SUV420H2 (endogenous, mESCs/EpiLCs) (from UniProt Q6Q783 1-468) | binds |
